PubChem BioAssay AID504834 (National Center for Advancing Translational Sciences (NCATS), 2011)
About 22,000 (6.9%) of roughly 320,000 compounds were called active. The inconclusive results got no clear call from the source; some entries with a clear call stand among them for comparison. The call rests on the fitted dose curve; in most records, active means well fitted inhibition curve with a large enough effect; inconclusive means small, poorly fitted or top-dose-only effect, or another doubt; inactive means no such curve, though single readings can be large or run the other way. Potencies beside an inconclusive call are fits to weak or partial responses and may not hold up.

test: Primary qHTS for delayed death inhibitors of the malarial parasite plastid, 96 hour incubation; settings: P. falciparum luciferase reporter growth; series mostly up to 28.7 µM
Summary of the method: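 Two parasite generations (96 h, 37 C, 5% CO2) of compound exposure in infected erythrocytes (0.05% parasitemia, 2% hematocrit). Luciferase-reporter P. falciparum; decreased luminescence indicates inhibited growth, aimed at apicoplast-acting delayed death.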
Potency means the concentration at half of the fitted maximal effect.

| Compound | Potency |
| --- | --- |
| CC(C)[C@H]1C(=O)Nc2ccccc2N1C(=O)N[C@@H](Cc1ccccc1)C(=O)N[C@H](C(=O)O)c1ccccc1 | inconclusive: 18.5 µM [inhibitor, single point] |
| CC(=O)c1cc(-c2ccc(F)cc2)n(CCC(=O)Nc2cccnc2)c1C | inactive |
| COc1ccc(OC)c(NC(=O)C2CCC(CNc3c(N4CCC(C)CC4)c(=O)c3=O)CC2)c1 (centres undefined) | inconclusive: 13.1 µM [inhibitor, single point] |
| Cc1cc(C)c2sc(N(CCCN(C)C)C(=O)c3ccc(S(=O)(=O)N(C)C4CCCCC4)cc3)nc2c1 | inconclusive: 18.5 µM [inhibitor, single point] |
| COc1ccccc1NS(=O)(=O)c1ccc(Cl)c(NC(=S)NC(=O)C2CCCC2)c1 | inactive |
| Cc1ccc(-c2nnc(SCC(=O)N/N=C/c3ccc(C)s3)n2-c2ccc(C)cc2)cc1 | inconclusive: 10.4 µM [inhibitor, single point] |
| COc1ccc(-n2ccn(CC(=O)Nc3ccc(OC)cc3OC)c(=O)c2=O)cc1 | inconclusive: 7.38 µM [inhibitor, partial curve] |
| CCN(Cc1ccccc1)C(=O)C(=O)c1cn(CC(=O)N2CCCC2)c2ccccc12 | inconclusive: 10.4 µM [inhibitor, partial curve] |
| O=C(/C=C/Nc1ccc(Nc2ccccc2)cc1)c1cccs1 | inactive |
| Cc1cc(Oc2ccc(Br)cc2)nc(SCC(=O)c2ccccc2)n1 | inconclusive: 2.08 µM [inhibitor, full curve] |
| Cc1ccc(S(=O)(=O)Cc2cc(F)c([N+](=O)[O-])cc2[N+](=O)[O-])cc1 | inconclusive: 18.5 µM [inhibitor, single point] |
| CC(NC(=S)NCc1ccc(F)cc1)C12CC3CC(CC(C3)C1)C2 (centres undefined) | inconclusive: 2.94 µM [inhibitor, partial curve, poor fit] |
| COc1ccccc1N(Cc1cc2ccc(C)cc2[nH]c1=O)C(C)=O | inconclusive: 0.0041 µM [inhibitor, full curve, poor fit] |
| Cc1ccc(NC(=O)CSc2nc(=O)n(CCCN3CCOCC3)c3c2CCCC3)c(C)c1 | inconclusive: 8.28 µM [inhibitor, partial curve, poor fit] |
| CNc1ccccc1C(=O)OC(C)C(=O)Nc1ccc(Cl)cn1 (centres undefined) | inconclusive: 18.5 µM [inhibitor, single point] |
| CC(=O)Nc1ccc(OC(=O)c2c(-c3ccccc3Cl)noc2C)cc1 | inconclusive: 18.5 µM [inhibitor, single point] |
| O=C(Oc1cccnc1)c1ccc([N+](=O)[O-])cc1 | inconclusive: 18.5 µM [inhibitor, single point] |
| O=C(c1cccnc1)N(Cc1ccccc1)C1(C(=O)Nc2ccccc2)CCCCC1 | inconclusive: 18.5 µM [inhibitor, single point] |
| O=C(Nc1nnc(CSCc2ccccc2F)s1)c1cccc([N+](=O)[O-])c1 | active: 13.1 µM |
| CC(C)=CCN1CCN(Cc2c[nH]c3ccccc23)CC1CCO (centres undefined) | active: 2.94 µM |
| O=C(NN=C1CCCCCC1)NC1CCCCC1 | inconclusive: 18.5 µM [inhibitor, single point] |
| Cc1c(N=C2NN=C(c3ccc(Cl)cc3)CS2)c(=O)n(-c2ccccc2)n1C | inconclusive: 20.8 µM [inhibitor, single point] |

| Compound | Potency |
| --- | --- |
| COC(=O)C1=C(c2ccc(OCc3ccccc3)cc2)C[C@@H]2CC[C@H]1N2C(=O)NCc1ccccc1 | inconclusive: 2.94 µM [inhibitor, full curve, poor fit] |
| CC1Cc2cc(S(=O)(=O)NCCC(=O)NCc3ccc(F)cc3)ccc2N1C(=O)C1CC1 (centres undefined) | inconclusive: 0.465 µM [inhibitor, full curve, poor fit] |
| S=c1[nH]c2ccc(Cc3ccc4[nH]c(=S)[nH]c4c3)cc2[nH]1 | inconclusive: 4.15 µM [inhibitor, single point] |
| COCc1nnc(NS(=O)(=O)c2ccc(Br)cc2)s1 | inconclusive: 18.5 µM [inhibitor, single point] |
| CCC(=O)NCCC(c1ccco1)c1ccccc1OC (centres undefined) | active: 10.4 µM |
| O=C(NCc1cccc(Cl)c1)c1cc(COc2ccc3ncccc3c2)on1 | inconclusive: 11.7 µM [inhibitor, partial curve] |
| C[n+]1ccccc1/C=C1\Sc2ccccc2N1CCO | active: 2.08 µM |
| O=C(CSc1nc2ccccc2[nH]1)N1CCN(c2ccccc2)CC1 | inconclusive: 7.38 µM [inhibitor, partial curve, poor fit] |
| O=[N+]([O-])c1ccc(Oc2ccc(F)cc2Br)c2ccncc12 | inconclusive: 7.38 µM [inhibitor, partial curve, poor fit] |
| Cc1cc2nc(-c3ccc(SCC(=O)Nc4ccc5c(c4)OCCO5)nc3)[nH]c2cc1C | active: 2.94 µM |
| COc1ccc(NS(=O)(=O)c2cc([N+](=O)[O-])ccc2N/N=C\c2c(C)[nH]c3ccccc23)cc1 | inconclusive: 1.04 µM [inhibitor, full curve, poor fit] |
| O=C(c1ccccc1)c1ccc(OCC(O)CNCc2ccc(F)cc2)cc1 (centres undefined) | inconclusive: 10.4 µM [inhibitor, single point] |
| CCn1c(C)nc2cc(C(=O)N/N=C/c3ccc(OC)c(O)c3)ccc21 | inconclusive: 10.4 µM [inhibitor, single point] |
| O=C(C1CCCN(S(=O)(=O)c2cccc3nsnc23)C1)N1CCc2ccccc21 (centres undefined) | inconclusive: 4.15 µM [inhibitor, single point] |
| COC(=O)c1cc(C(=O)Nc2cc(C)on2)cc([N+](=O)[O-])c1 | inactive |
| COC(=O)c1cccc(Nc2nc(-c3ccncc3)nc3ccccc23)c1 | inconclusive: 4.15 µM [inhibitor, single point] |
| COc1ccc(/C=C(/C(=O)Nc2ccccc2C(=O)NC(C)C)c2ccccc2)cc1 | inconclusive: 0.329 µM [inhibitor, full curve] |
| COc1cc(/C=C/C(=O)c2ccc([N+](=O)[O-])o2)ccc1O | inconclusive: 7.38 µM [inhibitor, partial curve] |
| COc1ccc(CCNC(=O)c2cc(S(=O)(=O)N(C)C)ccc2N2CCCC2)cc1OC | inactive |
| C=CCNC(=O)c1cc(-c2ccncc2)nc2c(C)cc(C)cc12 | inconclusive: 14.7 µM [inhibitor, partial curve, poor fit] |
| CCOc1ccc(NC(=O)CSc2nnc(-c3ccccc3Cl)n2Cc2ccco2)cc1 | active: 0.0329 µM |
| CC1CCC(NC(=O)c2nc(Cn3ccc([N+](=O)[O-])n3)no2)CC1 (centres undefined) | inconclusive: 11.7 µM [inhibitor, partial curve] |

| Compound | Potency |
| --- | --- |
| Cc1nc2c(sc3nc4c(cc32)COC(C)(C)C4)c(=O)n1CC(=O)NCc1ccco1 | inconclusive: 0.37 µM [inhibitor, partial curve, poor fit] |
| CC(Sc1nnc2c(n1)[nH]c1ccccc12)C(=O)N(C)C1CCCCC1 (centres undefined) | inconclusive: 13.1 µM [inhibitor, partial curve] |
| CCN(CC)C1=NS(=O)(=O)c2cc([N+](=O)[O-])ccc21 | inconclusive: 1.85 µM [inhibitor, partial curve, poor fit] |
| O=C(/C=C/c1ccc(Cl)cc1)Nc1ccc(CN2CCOCC2)cc1 | inconclusive: 8.28 µM [inhibitor, partial curve, poor fit] |
| CCOc1ccc(CCNC(=O)COC(=O)c2cccc(S(=O)(=O)N3CCCC3)c2)cc1OCC | inactive |
| Cn1c(=O)c(C(=O)NCc2ccc(F)cc2)c(O)c2ccccc21 | inconclusive: 18.5 µM [inhibitor, single point] |
| CCCCC(=O)Nc1cc([N+](=O)[O-])ccc1Cl | inactive |
| O=c1c2ccccc2c(C=Nc2ccc(Cl)cn2)c(O)n1-c1cc(Cl)ccc1N1CCOCC1 | inconclusive: 18.5 µM [inhibitor, partial curve, poor fit] |
| O=C(c1c[nH]c(C(=O)C(Cl)(Cl)Cl)c1)c1c(F)cccc1F | inconclusive: 1.17 µM [inhibitor, full curve] |
| O=C(CN1C(=O)C2C3C=CC(C3)C2C1=O)Nc1nc(-c2ccccn2)cs1 (centres undefined) | inconclusive: 16.5 µM [inhibitor, partial curve, poor fit] |
| Cc1ccc2[nH]c3c(=O)n(CCN4CCOCC4)cnc3c2c1 | inactive |
| CC1C(=O)N2CCCc3cc(NC(=O)C(=O)NCCc4ccc(F)cc4)cc1c32 (centres undefined) | inconclusive: 9.28 µM [inhibitor, partial curve] |
| O=C(COc1ccccc1)Nc1cc(Cl)ccc1Cl | inactive |
| COC(=O)CN1C(=O)C(O)(CC(=O)c2ccc(C)cc2)c2ccccc21 (centres undefined) | inconclusive: 7.38 µM [inhibitor, partial curve, poor fit] |
| Cc1ccc2c(CN3CCCCC3)cc(=O)oc2c1 | inactive |
| O=C(NCc1ccccc1)c1cncc(Br)c1 | inactive |
| CCOC(=O)C(c1ccccc1)C(Nc1ccc(Cl)c(Cl)c1)c1ccccn1 (centres undefined) | inconclusive: 3.29 µM [inhibitor, full curve, poor fit] |
| OC(COc1ccccc1)CN1CCC(Cc2ccccc2)CC1 (centres undefined) | inconclusive: 11.7 µM [inhibitor, single point] |
| COc1ccc(/C=C2\SC(=O)N(CC(=O)Nc3ccc(F)cc3)C2=O)cc1O | inactive |
| O=C(Nc1cccc(Cl)c1)c1cncn1-c1ccc(F)cc1 | inconclusive: 18.5 µM [inhibitor, partial curve, poor fit] |
